PubChem BioAssay AID1259314 – Drosophila RNAi Screening Center, 2017
Screen: 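Modifiers of manganese chloride toxicity in fly cells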 (primary screen). Cells: Drosophila S2R+ cells. Reagents: long dsRNA against Drosophila genes. Duration: 5 days (4 days knock-down, then 1 day metal exposure). Conditions: manganese chloride added to 15 mM for 24 hours. Detection: 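Luciferase ATP signal used as a proxy for viable cell number, reported as one averaged z-score per dsRNA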. Reading the numbers: mean ATP z-score: higher = more ATP than the plate average, more viable cells under manganese. Hit rule: 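a mean ATP z-score past 1.5 in either direction is called active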. Calls: active = strong ATP change, up or down; inactive = no strong ATP change.
Here is a random part of about 3,100 reagents tested. Over the whole deposit, 289 (9.3%) were called active. 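Active includes both higher and lower ATP than plate average; check the z-score sign for direction.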 Entries without a mark were called inactive. Reagent sequences are not shown. The record does not give: the amount of reagent.

Target gene,amplicon,mean ATP z-score
Ptr,DRSC04852,-0.368
Ptr,DRSC21517,-0.417
tkv,DRSC03623,-0.116
tkv,DRSC22606,-0.471
tkv,DRSC25957,-0.0722
CG2061,DRSC19348,-0.479
CG2061,DRSC39511,-0.479
CG10337,DRSC02038,-0.489
CG10337,DRSC39603,-0.654
CG31121,DRSC15361,-1.26
CG31121,DRSC15363,1.15
CG10062,DRSC24932,1.51 (active)
VhaPPA1-1,DRSC16170,2.27 (active)
VhaPPA1-1,DRSC24144,1.37
Oatp58Da,DRSC04365,-1.52 (active)
Oatp58Da,DRSC25499,-0.19
Or67b,DRSC11241,0.921
Or67b,DRSC39658,1.36
CG14694,DRSC14917,-0.111
Sema5c,DRSC11279,-1.32
Sema5c,DRSC26621,0.648
mthl9,DRSC08506,-0.0463
mthl9,DRSC39784,0.814
VAChT,DRSC13311,-0.635
VAChT,DRSC23986,2.16 (active)
Gr64f,DRSC08447,-1.37
Gr64f,DRSC25964,-2.41 (active)
Gr98d,DRSC14571,-0.0328
Gr98d,DRSC24547,0.485
GluClalpha,DRSC16680,0.147
FMRFaR,DRSC08555,-0.252
Mrp4,DRSC14931,0.18
Mrp4,DRSC28151,-0.335
Ktch,DRSC15094,-0.0084
Ktch,DRSC25973,-0.272
mgl,DRSC17823,0.0965
mgl,DRSC17859,2.16 (active)
Atpalpha,DRSC14119,0.221
Atpalpha,DRSC39134,-0.896
CG4645,DRSC19907,-1.17
CG4645,DRSC24802,2.88 (active)
GAA1,DRSC18267,-0.382
GAA1,DRSC39778,-1.24
Slc25A46a,DRSC20125,-0.84
Slc25A46a,DRSC39802,-0.257
